Here are results for one sequence from publication PMC10364317, “Regulation of indole‐3‐acetic acid biosynthesis and consequences of auxin production deficiency in Serratia plymuthica” (Microbial Biotechnology, 2023).

For this data set, the target named is T1, TyrR (TyrRA153) (Serratia plymuthica A153) (UniProt A0A318P557).
T1 sequence (looked up, limits assumed): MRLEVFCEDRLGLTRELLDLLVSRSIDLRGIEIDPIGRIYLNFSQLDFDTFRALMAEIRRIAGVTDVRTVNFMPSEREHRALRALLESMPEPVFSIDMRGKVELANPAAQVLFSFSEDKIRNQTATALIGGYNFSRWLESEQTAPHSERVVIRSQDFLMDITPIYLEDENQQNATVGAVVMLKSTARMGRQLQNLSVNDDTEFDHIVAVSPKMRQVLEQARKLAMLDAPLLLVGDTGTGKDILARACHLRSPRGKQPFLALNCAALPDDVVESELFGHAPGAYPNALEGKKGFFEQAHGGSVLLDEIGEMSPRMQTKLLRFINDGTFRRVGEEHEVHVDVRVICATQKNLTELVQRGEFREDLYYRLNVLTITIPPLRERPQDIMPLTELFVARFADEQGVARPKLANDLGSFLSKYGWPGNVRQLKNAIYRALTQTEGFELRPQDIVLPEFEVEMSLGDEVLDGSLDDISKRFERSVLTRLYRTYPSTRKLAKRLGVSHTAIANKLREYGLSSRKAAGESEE
The data set is described as follows: ITC. Particulars: L-Trp (e.g. 1 mM), 10 mM MgCl2; ITC: 5 mM Tris, 5 mM PIPES, 5 mM MES, 150 mM NaCl, 10 mM MgCl2, 10 mM beta-mercaptoethanol, 10% glycerol, pH 7.5, 10 C; 100 uM DNA injected into 5-20 uM TyrR; recombinant protein; protein details: N-terminal His6.

For at least one entry, the source does not settle the construct or the ends of the probe. Tags and fusion partners may be left off the protein sequences shown.

As to “CCCCTGTAAAGGAGCCATTACATCAA (double strand) [Pipdc-wt-ITC (wild-type TyrR box)]”, the Kd (as a rule, the equilibrium constant for the complex coming apart) amounted to 442 nM.
